Record: PubChem BioAssay AID1259308 (NCATS, 2017)
This is a random part of about 59,000 deposited reagents. About 1,510 of them (2.6%) count as active. 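Calls use total luciferase alone and ignore viability, so some active siRNAs may act by altering cell number.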 Entries without a mark were called inactive. Reagents against one gene are numbered here.

Aim: 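Genes whose loss raises luciferase production in HEK293 cells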 (primary screen)
System: human HEK293 embryonic kidney cells stably expressing firefly luciferase (HEK-CMV-Luc2-Hygro)
Knock-down reagent: single siRNA against human genes, 0.8 pmol siRNA per well
Timing: 72 h
Measured: 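Reporter luminescence and viable-cell signal on separate replicate plates, given as percent of non-targeting control and median/MAD z-scores, plus per-cell luciferase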
Scale: total luciferase, z-score and total luciferase, % of control: higher = more reporter protein produced; luciferase per cell, z-score: higher = more reporter output per viable cell; viable cells, % of control: higher = more viable cells
Hit rule: 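An siRNA counts as active if its total luciferase robust z-score exceeds 3; genes with two or more such siRNAs out of three were retested with fresh siRNAs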
Calls: active = raised luciferase; inactive = no rise

no.	Target gene	siRNA no.	total luciferase, z-score	total luciferase, % of control	luciferase per cell, z-score	viable cells, % of control
1	NNMT (nicotinamide N-methyltransferase)	1	0.104	84	0.728	77.4
2	NNMT (nicotinamide N-methyltransferase)	2	-0.345	75	-0.277	90.2
3	NNMT (nicotinamide N-methyltransferase)	3	-0.445	73	-0.259	87.4
4	COX14 (cytochrome c oxidase assembly factor COX14)	1	-1.04	61.2	-0.782	84
5	COX14 (cytochrome c oxidase assembly factor COX14)	2	2.06	123	2.31	74.7
6	COX14 (cytochrome c oxidase assembly factor COX14)	3	-0.668	68.6	-0.599	89.8
7	STAG3L3 (STAG3 cohesin complex component like 3 (pseudogene))	1	2.77	137	1.07	115
8	STAG3L3 (STAG3 cohesin complex component like 3 (pseudogene))	2	0.0231	82.3	-0.483	104
9	STAG3L3 (STAG3 cohesin complex component like 3 (pseudogene))	3	-0.943	63.1	-1.39	102
10	AZIN2 (antizyme inhibitor 2)	1	-1.37	54.7	-1.59	92.9
11	AZIN2 (antizyme inhibitor 2)	2	0.0707	83.3	0.498	81.6
12	AZIN2 (antizyme inhibitor 2)	3	-0.101	79.9	-0.195	94
13	REDIC1 (regulator of DNA class I crossover intermediates 1)	1	0.143	84.7	-0.231	101
14	REDIC1 (regulator of DNA class I crossover intermediates 1)	2	-0.208	77.7	-0.457	98
15	REDIC1 (regulator of DNA class I crossover intermediates 1)	3	-0.744	67.1	-1.29	105
16	PLAC9 (placenta associated 9)	1	0.54	92.6	0.0332	103
17	PLAC9 (placenta associated 9)	2	3.28 (active)	147	2.14	93.7
18	PLAC9 (placenta associated 9)	3	-0.185	78.2	0.126	84.5
19	ZNF317 (zinc finger protein 317)	1	-1.96	42.8	-0.887	60.5
20	ZNF317 (zinc finger protein 317)	2	-0.0754	80.4	0.27	83.7
21	ZNF317 (zinc finger protein 317)	3	2.15	125	2.39	74.3
22	SSRP1 (structure specific recognition protein 1)	1	-2.31	36	-2.38	75.3
23	SSRP1 (structure specific recognition protein 1)	2	-1.25	57.1	-0.789	78.6
24	SSRP1 (structure specific recognition protein 1)	3	-1.29	56.2	-0.893	79.5
